Values quoted from earlier work, collected in US20080096915A1, “COMPOSITIONS FOR THE TREATMENT OF METABOLIC DISORDERS” (Greenberg Traurig LLP, priority 2005, published 2008).
For at least one compound, name, drawing or mass did not settle the structure.

Test system: individuals with moderate hypercholesterolemia and untreated hypertension
Settings: 20 to 40 mg/day, 16 weeks

CC[C@H](C)C(=O)O[C@H]1C[C@H](O)C=C2C=C[C@H](C)[C@H](CC[C@@H](O)C[C@@H](O)CC(=O)O)[C@H]21 [pravastatin]
low-density lipoprotein cholesterol after treatment (decreased from 4.31): 3.22 mmol/L
total cholesterol after treatment (decreased from 6.29): 5.28 mmol/L
systolic and diastolic blood pressure after treatment (decreased from 149/97): 131/91
